In PMC7862700:
The list shows a part of the results, in another mix than the full data. At the low end of the ranking, values are background and their order means little.

Each sequence was assayed against T1, ELF3 (UniProt P78545) (assay: DAPPL (digital affinity profiling via proximity ligation, sequencing)). Details: 10 mM Tris-HCl pH 7.5, 50 mM NaCl, 1 mM DTT, 4% glycerol, room temperature, 30 min; GST-TFs on glutathione beads, 16-mer random dsDNA library, 0.1% …; high values mean tight binding; double strand, one strand shown; scale: fold enrichment (6-mer frequency, TF over GST control).
T1 sequence: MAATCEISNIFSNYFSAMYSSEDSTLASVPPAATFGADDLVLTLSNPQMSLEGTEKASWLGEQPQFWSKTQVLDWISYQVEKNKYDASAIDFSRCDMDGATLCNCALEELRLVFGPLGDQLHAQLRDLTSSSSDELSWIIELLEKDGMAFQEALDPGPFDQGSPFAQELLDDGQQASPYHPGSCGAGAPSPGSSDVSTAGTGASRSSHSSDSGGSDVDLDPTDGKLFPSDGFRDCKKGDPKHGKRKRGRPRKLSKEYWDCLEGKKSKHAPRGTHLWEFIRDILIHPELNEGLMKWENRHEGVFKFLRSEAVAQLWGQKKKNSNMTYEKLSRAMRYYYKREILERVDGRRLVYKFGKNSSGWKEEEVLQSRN

Sequence	binding signal
GACCGG	1.14
GTAGCA	1.01
TGGCTC	1.44
TGGCGA	0.892
CTAGAA	1.03
CTACAA	1.03
CTCCAT	0.984
TAAAAA	1.33
CGGCAT	1.02
TCCTGG	1.17
AGCTCT	1.21
CTCCCC	1.25
GTTCGC	0.97
TTACCA	1.1
TAGATA	1.08
GTGCAT	1.03
GACACT	1
ACGAAT	1.12
CCCGTC	1.03
GCAACC	0.965

Given with bars between the fields: entries from further up
Sequence | binding signal
CTACAA | 1.03
TAAAAA | 1.33
TAGATA | 1.08

Next part:

Sequence	binding signal
TAAGTA	1.36
ATAAAG	1.02
TTGAAA	1.13
ATACAC	1.16
ACACTC	0.973
GATGCA	1.16
TGACGC	1.11
CGTTGT	0.992
CGTACC	1.25
AAACGA	1.11
TCACTC	1.26
TGGTCC	0.93
TCCTAA	1.57
TGCCTA	0.991
TAACTA	1.33
CTCATA	1.34
GATGTT	1.22
TGCCCA	0.987
AATGGT	1.25
